# Test results published in paper PMC10702356.
# These are yes or no findings as the source states them, for the method shown. In cells and extracts the contact can be indirect. Binding can be weak; no strength is given. Where a sequence is shown, tags or fusion partners need not be part of it.
# Target: T1, HopD1 fused to the epitope haemagglutinin (HopD1-HA) (Pseudomonas syringae pv. tomato DC3000) (UniProt Q888Y8)
# T1 sequence: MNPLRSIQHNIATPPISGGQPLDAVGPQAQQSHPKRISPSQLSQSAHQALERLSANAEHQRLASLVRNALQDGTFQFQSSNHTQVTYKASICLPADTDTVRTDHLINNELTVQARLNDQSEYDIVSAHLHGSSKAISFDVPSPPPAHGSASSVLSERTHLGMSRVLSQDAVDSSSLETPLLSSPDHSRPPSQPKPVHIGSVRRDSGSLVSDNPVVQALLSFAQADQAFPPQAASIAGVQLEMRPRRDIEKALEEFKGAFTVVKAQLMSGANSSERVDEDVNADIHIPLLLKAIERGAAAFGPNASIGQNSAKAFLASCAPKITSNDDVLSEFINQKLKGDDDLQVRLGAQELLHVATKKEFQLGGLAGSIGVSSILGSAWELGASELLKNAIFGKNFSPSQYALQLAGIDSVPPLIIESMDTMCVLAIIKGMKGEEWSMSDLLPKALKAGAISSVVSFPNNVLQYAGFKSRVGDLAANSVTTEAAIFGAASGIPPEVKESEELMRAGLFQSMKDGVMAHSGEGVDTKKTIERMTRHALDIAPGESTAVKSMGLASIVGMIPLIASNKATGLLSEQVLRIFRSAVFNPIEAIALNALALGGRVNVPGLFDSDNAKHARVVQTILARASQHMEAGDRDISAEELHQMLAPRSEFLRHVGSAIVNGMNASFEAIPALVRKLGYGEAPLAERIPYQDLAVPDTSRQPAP
# Assay: co-IP
substance,measurement,value
AtNHR2B fused to the green fluorescent protein (AtNHR2B-GFP) (Arabidopsis thaliana),binding,binds
